Results deposited as PubChem BioAssay AID1259424 (University of Nebraska Medical Center, 2018)
The deposit covers about 14,000 reagents; this is a part drawn at random. 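Higher correlation or smaller distance means closer resemblance to KSR1 loss; control wells, including KSR1 knockdowns, recur on many plates.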 Further read-outs or replicates are left out here. Reagent sequences are not shown. The record does not give: the time to read-out.

- Screen: 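Seek colon cancer survival genes behaving like KSR1, using a six-gene signature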 (primary screen)
- System: human HCT116 colon cancer cells
- Reagents: siRNA pool against human genes, 50 nM
- Measured: 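Six signature mRNAs by branched-DNA multiplex assay, scaled to two housekeeping genes and non-targeting median, log2; matched to mean KSR1 knockdown profile by Pearson correlation and euclidean distance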
- Scale: mean correlation with KSR1 profile: higher = expression change more like KSR1 knockdown; mean distance from KSR1 profile: higher = expression change less like KSR1 knockdown

For HDHD5 (haloacid dehalogenase like hydrolase domain containing 5) the deposit lists mean correlation with KSR1 profile 0.426; mean distance from KSR1 profile 2.25. Knock-down of CD1E (CD1e molecule) resulted in: mean correlation with KSR1 profile -0.213; mean distance from KSR1 profile 2.68. With knock-down of DYNC1LI1 (dynein cytoplasmic 1 light intermediate chain 1) the results were mean correlation with KSR1 profile 0.287; mean distance from KSR1 profile 1.67. With knock-down of NCS1 (neuronal calcium sensor 1), the screen gave mean correlation with KSR1 profile -0.632; mean distance from KSR1 profile 3.22. INO80 (INO80 complex ATPase subunit) showed mean correlation with KSR1 profile -0.586; mean distance from KSR1 profile 2.75. ADSS1 (adenylosuccinate synthase 1) gave mean correlation with KSR1 profile 0.0421; mean distance from KSR1 profile 1.84.

After knock-down of SEMA4C (semaphorin 4C), the record shows mean correlation with KSR1 profile 0.516; mean distance from KSR1 profile 1.29. With knock-down of CCDC30 (coiled-coil domain containing 30) the results were mean correlation with KSR1 profile 0.393; mean distance from KSR1 profile 1.59. RARRES2 (retinoic acid receptor responder 2) gave mean correlation with KSR1 profile -0.172; mean distance from KSR1 profile 3.34. ITGB6 (integrin subunit beta 6) showed mean correlation with KSR1 profile 0.681; mean distance from KSR1 profile 0.826. AKIRIN2 (akirin 2) showed mean correlation with KSR1 profile 0.803; mean distance from KSR1 profile 1.13. For HIP1 (huntingtin interacting protein 1), the entry reads mean correlation with KSR1 profile 0.0772; mean distance from KSR1 profile 2.6.

PBX1 (PBX homeobox 1) scored mean correlation with KSR1 profile -0.531; mean distance from KSR1 profile 2.35. Against SRCAP (Snf2 related CREBBP activator protein), the values are mean correlation with KSR1 profile -0.637; mean distance from KSR1 profile 3.41. For MAD2L2 (mitotic arrest deficient 2 like 2), the values are mean correlation with KSR1 profile -0.246; mean distance from KSR1 profile 3.41. MORF4L1 (mortality factor 4 like 1) scored mean correlation with KSR1 profile 0.228; mean distance from KSR1 profile 3.13. Depletion of YARS2 (tyrosyl-tRNA synthetase 2) gave: mean correlation with KSR1 profile -0.165; mean distance from KSR1 profile 3.16. Knock-down of MMAA (metabolism of cobalamin associated A) gave: mean correlation with KSR1 profile 0.804; mean distance from KSR1 profile 1.14.

Silencing of LRRC40 (leucine rich repeat containing 40) resulted in: mean correlation with KSR1 profile 0.213; mean distance from KSR1 profile 5.03.

2 of these entries in another layout.
Target gene,mean correlation with KSR1 profile,mean distance from KSR1 profile
RARRES2 (retinoic acid receptor responder 2),-0.172,3.34
ITGB6 (integrin subunit beta 6),0.681,0.826
